In paper PMC10388354, “Ir(III) Compounds Containing a Terdentate Ligand Are Potent Inhibitors of Proliferation and Effective Antimetastatic Agents in Aggressive Triple-Negative Breast Cancer Cells” (Journal of Medicinal Chemistry, 2023):

Tests used:
MDA-MB-231 cells = test: Antiproliferative activity, sulforhodamine B (SRB) assay; type: cell-based; conditions: Homo sapiens, 72 h incubation, mean ± SD
Procedure: (§1) The antiproliferative activity of the investigated compounds was evaluated using the SRB assay. The cells were seeded in 96-well tissue culture plates at a density of 3 × 10^3 cells/well in 100 μL of the medium. After overnight incubation in a humidified CO2 incubator, the cells were treated with the tested compounds in a final volume of 200 μL/well. After an additional 72 h, cells were washed with PBS and fixed for 1 h at 4 °C with trichloroacetic acid. Then, the cells were stained with 0.4% SRB dye for 30 min. Stained cells were dissolved with Tris (10 mM). The cell viability was evaluated by measurement of the absorbance at 570 nm using an absorbance reader (SPARK TECAN, SCHOELLER). The reading values were converted to the percentage of control (% cell survival). Antiproliferative effects were expressed as IC50 values calculated from curves constructed by plotting cell survival (%) versus drug concentration (μM) (IC50 = concentration of the agent inhibiting cell growth by 50%). Concentrations of compounds present in the medium during the treatment were verified by FAAS or ICP-MS.

MCF-7 cells = test: as above; type: cell-based; conditions: Homo sapiens, MCF7, 72 h incubation, mean ± SD
Procedure: as §1

IC50 (MDA-MB-231 cells): 620 ± 80 nM
IC50 (MCF-7 cells): 330 ± 70 nM
Structure (SMILES): COc1cccc2c1C(=O)c1c(O)c3c(c(O)c1C2=O)C[C@@](O)(C(=O)CO)C[C@@H]3O[C@H]1C[C@H](N)[C@H](O)[C@H](C)O1 [Dox, doxorubicin]
